Measured values as given in the supplement of paper PMC6078165.
The reference is the same well before dosing, and untreated signal decays as well.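 Labels refer to human fibroblasts, largely primary: uterine (C12385, HUF), lung (H6013), bone (Hs27A), adrenal (HADF), skin (WS1), plus mammary HMF and breast cancer-associated Hs343T. Cancer lines are basal-like or mesenchymal-like triple-negative breast cancer. The paper counts as hits responses shifting over 3x the replicate standard deviation. The tissue of the other fibroblasts is not given here.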

System: HCC1143
Assay: relative JC-1 red fluorescence (viability) vs pre-drug, coculture with fibroblast (fraction); higher = more viable cancer cells
Method: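 JC-1 labelled TNBC cells cocultured 1:1 (1,500 cells each) with CellTrace Violet stained primary or stromal fibroblasts in 384-well plates in FluoroBrite medium, treated with one of 42 anticancer drugs at 0.1, 1, 10 or 100 uM. JC-1 red fluorescence (mitochondrial integrity in cancer cells only) was read by plate reader every 8 h for 72 h. Values are normalised to each well's pre-drug value. The stock of one drug was tenfold lower, so its dose labels may be too high.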

O=NN(CCCl)C(=O)NCCCl [Carmustine]
relative JC-1 red fluorescence
Conditions	8 h	16 h	24 h	32 h	40 h	48 h	56 h	64 h	72 h
0.1 µM, coculture fibroblast: C12385	0.853	0.754	0.678	0.595	0.513	0.456	0.417	0.361	0.338
0.1 µM, coculture fibroblast: H6013	0.81	0.744	0.685	0.666	0.593	0.577	0.545	0.523	0.496
0.1 µM, coculture fibroblast: H6019	0.8065	0.718	0.668	0.598	0.543	0.504	0.451	0.408	0.365
0.1 µM, coculture fibroblast: H6076	0.819	0.798	0.737	0.727	0.662	0.652	0.621	0.597	0.617
0.1 µM, coculture fibroblast: H6231	0.8466	0.8549	0.8163	0.774	0.764	0.75	0.7218	0.687	0.668
0.1 µM, coculture fibroblast: HADF	0.7362	0.6665	0.6138	0.6071	0.521	0.498	0.46	0.435	0.41
0.1 µM, coculture fibroblast: HCFa	0.78	0.684	0.625	0.601	0.51	0.471	0.425	0.391	0.366
0.1 µM, coculture fibroblast: HCPF	0.807	0.811	0.729	0.646	0.629	0.599	0.559	0.521	0.504
0.1 µM, coculture fibroblast: HHSteC	0.831	0.737	0.671	0.641	0.557	0.51	0.466	0.434	0.391
0.1 µM, coculture fibroblast: HMF	0.812	0.7658	0.71	0.717	0.636	0.626	0.592	0.579	0.576
0.1 µM, coculture fibroblast: HPFa	0.9167	0.8319	0.7902	0.696	0.627	0.591	0.521	0.465	0.426
0.1 µM, coculture fibroblast: HUF	0.8606	0.769	0.705	0.63269	0.579	0.5506	0.5033	0.4691	0.4415
0.1 µM, coculture fibroblast: Hs5	0.8506	0.778	0.746	0.754	0.6666	0.644	0.6174	0.5938	0.5955
0.1 µM, coculture fibroblast: Hs27A	0.683	0.592	0.542	0.562	0.426	0.401	0.348	0.31	0.296
0.1 µM, coculture fibroblast: Hs343T	0.807	0.794	0.721	0.709	0.634	0.601	0.564	0.537	0.525
0.1 µM, coculture fibroblast: WS1	0.809	0.711	0.648	0.581	0.518	0.475	0.425	0.389	0.36
1 µM, coculture fibroblast: C12385	0.821	0.776	0.711	0.671	0.604	0.578	0.548	0.517	0.51
1 µM, coculture fibroblast: H6013	0.729	0.674	0.635	0.608	0.549	0.538	0.504	0.488	0.444
1 µM, coculture fibroblast: H6019	0.808	0.7508	0.7141	0.64471	0.606	0.5827	0.5361	0.4931	0.459
1 µM, coculture fibroblast: H6076	0.8024	0.739	0.717	0.722	0.6548	0.655	0.638	0.622	0.644
1 µM, coculture fibroblast: H6231	0.8028	0.77	0.706	0.66	0.609	0.584	0.5491	0.51226	0.498
1 µM, coculture fibroblast: HADF	0.7305	0.648	0.6039	0.594	0.5049	0.483	0.449	0.423	0.389
1 µM, coculture fibroblast: HCFa	0.787	0.731	0.682	0.661	0.585	0.557	0.51	0.473	0.449
1 µM, coculture fibroblast: HCPF	0.776	0.729	0.687	0.645	0.606	0.573	0.549	0.52	0.511
1 µM, coculture fibroblast: HHSteC	0.792	0.728	0.694	0.657	0.594	0.57	0.532	0.502	0.441
1 µM, coculture fibroblast: HMF	0.807	0.763	0.734	0.743	0.686	0.671	0.652	0.644	0.64
1 µM, coculture fibroblast: HPFa	0.876	0.8004	0.756	0.662	0.6	0.561	0.491	0.436	0.393
1 µM, coculture fibroblast: HUF	0.835	0.7543	0.708	0.628	0.5858	0.557	0.51	0.482	0.456
1 µM, coculture fibroblast: Hs5	0.841	0.772	0.749	0.752	0.666	0.642	0.619	0.588	0.582
1 µM, coculture fibroblast: Hs27A	0.715	0.624	0.579	0.579	0.466	0.46	0.405	0.373	0.331
1 µM, coculture fibroblast: Hs343T	0.798	0.773	0.719	0.668	0.61	0.578	0.544	0.523	0.50439
1 µM, coculture fibroblast: WS1	0.7826	0.7075	0.673	0.597	0.544	0.507	0.466	0.439	0.412
10 µM, coculture fibroblast: C12385	0.854	0.7606	0.672	0.604	0.536	0.49	0.448	0.403	0.371
10 µM, coculture fibroblast: H6013	0.769	0.671	0.634	0.615	0.552	0.548	0.517	0.496	0.443
10 µM, coculture fibroblast: H6019	0.796	0.684	0.628	0.561	0.51	0.491	0.44	0.397	0.359
10 µM, coculture fibroblast: H6076	0.814	0.816	0.7457	0.71	0.652	0.6374	0.6	0.576	0.577
10 µM, coculture fibroblast: H6231	0.826	0.828	0.736	0.652	0.65	0.62	0.583	0.543	0.515
10 µM, coculture fibroblast: HADF	0.7892	0.729	0.708	0.715	0.6293	0.606	0.564	0.534	0.508
10 µM, coculture fibroblast: HCFa	0.792	0.712	0.69	0.675	0.601	0.578	0.531	0.505	0.478
10 µM, coculture fibroblast: HCPF	0.814	0.8	0.738	0.676	0.641	0.617	0.576	0.541	0.527
10 µM, coculture fibroblast: HHSteC	0.7935	0.689	0.645	0.603	0.512	0.472	0.43	0.397	0.36
10 µM, coculture fibroblast: HMF	0.807	0.843	0.754	0.682	0.651	0.618	0.573	0.549	0.529
10 µM, coculture fibroblast: HPFa	0.888	0.798	0.7463	0.658	0.5814	0.5438	0.4782	0.4253	0.379
10 µM, coculture fibroblast: HUF	0.863	0.7726	0.694	0.615	0.564	0.522	0.479	0.446	0.411
10 µM, coculture fibroblast: Hs5	0.862	0.815	0.7913	0.796	0.714	0.693	0.669	0.64	0.648
10 µM, coculture fibroblast: Hs27A	0.722	0.628	0.574	0.588	0.479	0.454	0.404	0.368	0.337
10 µM, coculture fibroblast: Hs343T	0.822	0.842	0.79	0.734	0.686	0.663	0.618	0.581	0.556
10 µM, coculture fibroblast: WS1	0.861	0.767	0.703	0.626	0.562	0.5193	0.478	0.439	0.411
100 µM, coculture fibroblast: C12385	0.843	0.79	0.756	0.715	0.665	0.641	0.618	0.587	0.58
100 µM, coculture fibroblast: H6013	0.792	0.767	0.758	0.757	0.727	0.741	0.704	0.69	0.632
100 µM, coculture fibroblast: H6019	0.801	0.731	0.69	0.62	0.582	0.562	0.506	0.459	0.418
100 µM, coculture fibroblast: H6076	0.80691	0.754	0.744	0.746	0.683	0.68	0.664	0.656	0.675
100 µM, coculture fibroblast: H6231	0.8042	0.805	0.761	0.687	0.68	0.656	0.632	0.602	0.597
100 µM, coculture fibroblast: HADF	0.76	0.72	0.684	0.671	0.598	0.586	0.558	0.54	0.513
100 µM, coculture fibroblast: HCFa	0.762	0.687	0.642	0.617	0.54	0.514	0.467	0.438	0.404
100 µM, coculture fibroblast: HCPF	0.815	0.777	0.745	0.705	0.682	0.656	0.626	0.604	0.602
100 µM, coculture fibroblast: HHSteC	0.8319	0.8058	0.775	0.75	0.692	0.675	0.641	0.617	0.567
100 µM, coculture fibroblast: HMF	0.7833	0.786	0.723	0.648	0.628	0.602	0.566	0.541	0.521
100 µM, coculture fibroblast: HPFa	0.878	0.806	0.777	0.678	0.622	0.59	0.522	0.4788	0.4359
100 µM, coculture fibroblast: HUF	0.865	0.778	0.731	0.663	0.612	0.594	0.546	0.514	0.489
100 µM, coculture fibroblast: Hs5	0.8535	0.841	0.8103	0.7879	0.715	0.689	0.669	0.659	0.66
100 µM, coculture fibroblast: Hs27A	0.744	0.724	0.699	0.724	0.632	0.654	0.629	0.618	0.578
100 µM, coculture fibroblast: Hs343T	0.804	0.816	0.763	0.685	0.657	0.624	0.589	0.57	0.546
100 µM, coculture fibroblast: WS1	0.818	0.76	0.73	0.669	0.622	0.59	0.549	0.516	0.49
